From US20100120882A1, “PHENOXYMETHYL IMIDAZOLINE DERIVATIVES AND THEIR USE AS PESTICIDES” (SYNGENTA CROP PROTECTION, INC., priority 2007, published 2010)
Some results were stated once for a whole list of compounds, not compound by compound.

Tests used:
Format in all cases: in vivo
Myzus persicae [1] = assay: Myzus persicae (Green peach aphid) pea seedling root uptake test; details: 24 ppm test solution, roots of infested pea seedlings; 6 days; mortality
Myzus persicae [2] = assay: Myzus persicae (Green peach aphid) sunflower leaf disc spray test; details: 200 ppm spray on sunflower leaf discs; mixed ages; 6 DAT; mortality
Tetranychus urticae = Tetranychus urticae (Two-spotted spider mite) bean leaf disc spray test; details: 200 ppm spray on bean leaf discs; mixed ages; 8 days; egg, larval and adult mortality
Heliothis virescens = Heliothis virescens (Tobacco budworm) egg/larva test on artificial diet; details: 200 ppm by pipetting on eggs (0-24 h old) on artificial diet; 4 days; egg mortality, larval mortality, growth regulation

Structure (SMILES) | control of Myzus persicae (Myzus persicae [1]) | control of Myzus persicae (Myzus persicae [2]) | control of Tetranychus urticae (Tetranychus urticae) | control of Heliothis virescens (Heliothis virescens)
CCC(Oc1c(F)ccc(F)c1F)C1=NCCN1 (centres unmarked) [Compound 1.018] | at least 80% | – | – | –
CCC(Oc1cc(F)cc(F)c1Cl)C1=NCCN1 (centres unmarked) [XI-2] | – | at least 80% | at least 80% | –
CCC(Oc1c(F)ccc(Cl)c1F)C1=NCCN1 (centres unmarked) [Compound 1.032] | at least 80% | at least 80% | at least 80% | –
CCC(Oc1cc(F)cc(F)c1C)C1=NCCN1 (centres unmarked) [Compound 1.029] | at least 80% | at least 80% | at least 80% | –
CCC(Oc1c(F)cccc1F)C1=NCCN1 (centres unmarked) [Compound I-2] | at least 80% | at least 80% | at least 80% | at least 80%
CCC(Oc1cccc(C(F)(F)F)c1F)C1=NCCN1 (centres unmarked) [Compound 1.034] | at least 80% | at least 80% | at least 80% | –
CCC(Oc1c(F)ccc(F)c1Cl)C1=NCCN1 (centres unmarked) [III-2] | – | at least 80% | at least 80% | –
CCC(Oc1c(F)c(F)cc(F)c1F)C1=NCCN1 (centres unmarked) [XIV-2] | at least 80% | at least 80% | at least 80% | –
CCC(Oc1cc(F)cc(Cl)c1Cl)C1=NCCN1 (centres unmarked) [Compound 1.024] | – | at least 80% | at least 80% | –
CCC(Oc1c(F)ccc(C)c1C)C1=NCCN1 (centres unmarked) [Compound 1.028] | at least 80% | at least 80% | – | –
CCC(Oc1c(F)c(F)cc(C)c1Cl)C1=NCCN1 (centres unmarked) [Compound 1.026] | at least 80% | at least 80% | – | at least 80%
CCC(Oc1cccc(Cl)c1F)C1=NCCN1 (centres unmarked) [Compound 1.031] | at least 80% | at least 80% | at least 80% | –
CCC(Oc1c(F)ccc(F)c1C)C1=NCCN1 (centres unmarked) [Compound 1.021] | at least 80% | at least 80% | at least 80% | –
CCC(Oc1cc(F)cc(F)c1F)C1=NCCN1 (centres unmarked) [Compound 1.008] | at least 80% | at least 80% | at least 80% | –
CCC(Oc1c(F)ccc(Cl)c1Cl)C1=NCCN1 (centres unmarked) [Compound 1.030] | at least 80% | at least 80% | at least 80% | –
CCC(Oc1cc(F)cc(C)c1Cl)C1=NCCN1 (centres unmarked) [Compound 1.023] | at least 80% | at least 80% | at least 80% | at least 80%
CCC(Oc1cc(F)cc(F)c1)C1=NCCN1 (centres unmarked) [Compound 1.005] | – | at least 80% | at least 80% | –
CCC(Oc1c(F)cccc1Cl)C1=NCCN1 (centres unmarked) [Compound 1.010] | – | at least 80% | at least 80% | –
CCC(Oc1cccc(F)c1F)C1=NCCN1 (centres unmarked) [Compound 1.003] | – | – | at least 80% | –
CCC(Oc1cccc(F)c1C)C1=NCCN1 (centres unmarked) [Compound 1.017] | at least 80% | at least 80% | at least 80% | at least 80%
